In this assay the target is T1, 6His-MBP-HIM-3CM fusion protein (C. elegans).
T1 sequence: RDSPYGLSQGITKKNKD
The experiment in a line: pull-down; HTP-1 versions co-expressed with 6His-MBP-HIM-3CM in E. coli; 2 mg total soluble protein incubated with HisPure Cobalt resin 1.5 h at 4 °C; 50 mM Tris-Cl pH 7.4, 200 mM NaCl, washes with 20 mM imidazole, elution with 150 mM imidazole; Coomassie-stained SDS-PAGE, HTP-1 band as a fraction of the 6His-MBP-HIM-3CM band, input against elution.

Changes are numbered by the printed parent chain. In names and notes the source's numbering stands. These are yes or no findings as the source states them, for the method shown. Binding seen in cells or lysates may run through a third protein. Some binding calls cover weakened binding; strength is not graded here. Where a sequence is shown, tags or fusion partners need not be part of it.

B1: HTP-1 (WT) (protein, UniProt Q20305 1-352)
chain: MAPLETIYDESLNKSADSIDDKKWSKLFPRIVSDPDRSSNFMTRAIYVAFSAVLRNRNILGQEYFTKNYITEKLKCMTLCFRNPRSNQIAQLLRNAGDATKDGFLKEVSLVITNNEGDLEAIEVFSMKFIYFENGGVVARLSTDKNGQEDPHFAKLAQLVYEGGDSVRDQMVTIVRSVQFLCTKVLEPLPEEFTANFRLEYTNDAPSNFRIDGFEDSSTFYTLPDDIQSATIGHLRPGCHAANMECWSMLMSDSYEAELTLKRHLDKVSDRHGFNPVNVLYKSFNSEDSDTSLSQATTESVNDQGGNETSPVDDITESLEKAQMSPIQTRPTTRRGADGSKTRSSPYSRSCK
As for B1, the binding entry is “binds”.

B2: HTP-1^A139K (protein, UniProt Q20305 1-352)
chain: B1 chain with A139K
In the case of B2, the binding entry is recorded as “binds”.

B3: HTP-1^(D144K L156K) (protein, UniProt Q20305 1-352)
chain: B1 chain with D144K, L156K
With B3, the binding result was “binds”.

B4: HTP-1^mut7 (protein, UniProt Q20305 1-352)
chain: B1 chain with D226G, A230V, C239H, N243H, E245Q, M249K, L250S
With B4, the binding entry is listed as “binds”.

B5: HTP-1^∆151-162 (protein, UniProt Q20305)
chain: MAPLETIYDESLNKSADSIDDKKWSKLFPRIVSDPDRSSNFMTRAIYVAFSAVLRNRNILGQEYFTKNYITEKLKCMTLCFRNPRSNQIAQLLRNAGDATKDGFLKEVSLVITNNEGDLEAIEVFSMKFIYFENGGVVARLSTDKNGQEDGGDSVRDQMVTIVRSVQFLCTKVLEPLPEEFTANFRLEYTNDAPSNFRIDGFEDSSTFYTLPDDIQSATIGHLRPGCHAANMECWSMLMSDSYEAELTLKRHLDKVSDRHGFNPVNVLYKSFNSEDSDTSLSQATTESVNDQGGNETSPVDDITESLEKAQMSPIQTRPTTRRGADGSKTRSSPYSRSCK
As to B5, the binding result was “binds”.

The values are drawn from publication PMC13381836.
